# Laboratory results taken from PubChem BioAssay AID1671190 (National Center for Advancing Translational Sciences (NCATS), 2021).
# By UniProt entry, the sequences of proteins in these tests, tags left out. Where a name states a change or a piece, a line headed by the entry shows the natural chain unless it says otherwise.
# UniProt P18054: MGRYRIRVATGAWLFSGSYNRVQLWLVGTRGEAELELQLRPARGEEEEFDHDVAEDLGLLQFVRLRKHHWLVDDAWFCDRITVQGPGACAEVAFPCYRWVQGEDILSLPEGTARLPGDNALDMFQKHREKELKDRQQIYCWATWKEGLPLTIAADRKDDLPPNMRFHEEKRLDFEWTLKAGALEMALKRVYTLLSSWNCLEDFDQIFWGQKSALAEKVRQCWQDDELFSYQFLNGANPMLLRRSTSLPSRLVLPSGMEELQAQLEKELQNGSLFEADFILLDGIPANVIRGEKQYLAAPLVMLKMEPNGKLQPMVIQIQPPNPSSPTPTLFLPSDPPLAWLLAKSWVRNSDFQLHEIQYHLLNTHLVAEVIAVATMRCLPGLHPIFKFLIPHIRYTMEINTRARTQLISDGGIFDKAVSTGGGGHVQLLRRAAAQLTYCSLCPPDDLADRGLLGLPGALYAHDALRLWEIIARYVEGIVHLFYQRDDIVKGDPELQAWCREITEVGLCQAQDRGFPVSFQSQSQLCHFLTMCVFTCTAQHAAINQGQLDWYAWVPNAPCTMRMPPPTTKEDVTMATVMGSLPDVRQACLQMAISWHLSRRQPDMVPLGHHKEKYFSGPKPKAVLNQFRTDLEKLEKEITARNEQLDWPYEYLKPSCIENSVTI
# Values joined by “and” are separate entries in the source; they are usually repeats but may differ in a detail not shown here. Equal entries are not always repeated. The whole screen tested about 580,000 compounds, of which about 6,100 (1.1%) were called active. Inconclusive results, whose numbers are uncertain, are shown with a selection of clear calls. The call rests on the fitted dose curve; in most records, active means well fitted inhibition curve with a large enough effect; inconclusive means small, poorly fitted or top-dose-only effect, or another doubt; inactive means no such curve, though single readings can be large or run the other way. Potencies beside an inconclusive call are fits to weak or partial responses and may not hold up.
# Biological target: Polyunsaturated fatty acid lipoxygenase ALOX12 (Homo sapiens) (UniProt P18054)
# Test: Primary qHTS assay for inhibitors of human arachidonate 12S-lipoxygenase (ALOX12): Round 2
# Settings: purified 12hLO, xylenol orange hydroperoxide absorbance; activity change, negative = inhibition: at 108 µM (top of the series) unless noted
# How it was run: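 Hydroperoxide product was detected by ferrous iron/xylenol orange as the 573 to 405 nm absorbance ratio. Arachidonic acid at 40 uM (final) was turned over for 30 min at room temperature by 150 nM human 12hLO, pH 7.0 Hepes buffer, after 15 min compound preincubation.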
# On the % scale 0 is the no-effect control and ±100 the full control effect; potency means the concentration at half of the fitted maximal effect.
Compound,"activity change, negative = inhibition",Potency
CC(C)NC(=O)Cc1cccn1-c1cccc(Cl)c1,inactive: 28.9%,–
Cc1ccccc1C(=O)N1CCN(c2ccc(NC(=S)NC(=O)c3ccco3)cc2)CC1,–,"inconclusive: 44.7 µM [inhibitor, partial curve]"
Cc1ccc(NC(=O)C(C)N2CCc3ccccc3C2)cc1 (configuration not stated),inactive: 3.75%,–
O=C(Cn1ccn2nc(-c3ccc4c(c3)OCO4)cc2c1=O)NCc1ccc(Cl)cc1,–,"inconclusive: 0.282 µM [inhibitor, full curve, poor fit]"
CCCNc1nc2c(c(=O)n(C)c(=O)n2C)n1CC,–,"inconclusive: 126 µM [inhibitor, single point]"
O=C(COc1ccc(Cl)cc1)N1CCN(c2ccccc2)C(=O)C1,inactive: 12.8%,–
CCCCCC/C=N/NC(=O)c1ccc(C(C)(C)C)cc1,inactive: 29.4%,–
Cc1cccc(C)c1NC(=O)COC(=O)c1ccccc1Nc1ccccc1,–,"inconclusive: 4.47 µM [inhibitor, full curve, poor fit]"
C=CCc1cc(C)ccc1OCCCC(C(=O)OCC)C(=O)OCC,inactive: 9.11%,–
CCCCN1CNC(=S)N(c2ccc(C(=O)OCC)cc2)C1,–,"inconclusive: 50.1 µM [inhibitor, partial curve, poor fit]"
CC(NS(=O)(=O)Cc1ccc(F)cc1)c1cccs1 (configuration not stated),inactive: -4.96%,–
Cc1nc(CN2C[C@H](C(=O)N3CCN(c4ccccn4)CC3)C[C@@H]2c2ccc(F)cc2)cs1,–,"inconclusive: 17.8 µM [inhibitor, full curve]"
CC(C)CCOC(=O)c1ccccc1,–,"inconclusive: 79.4 µM [inhibitor, single point]"
CCC(Sc1nc(C)cc(C)n1)C(=O)NC1=NN=C(c2ccc(C)cc2)CS1 (configuration not stated),–,"inconclusive: 100 µM [inhibitor, partial curve, poor fit]"
COc1ccc(CN2C(=O)C(C)Nc3ncnc(N4CCN(c5ccccc5)CC4)c32)cc1 (configuration not stated),–,"inconclusive: 50.1 µM [inhibitor, single point] and inconclusive: 28.2 µM [inhibitor, partial curve, poor fit]"
O=C(/C=C/c1cccs1)OC(C(=O)c1c[nH]c2ccccc12)c1ccccc1 (configuration not stated),inactive: -5.29%,–
Cc1ccc(NC(=O)c2cc(-c3ccco3)nc3ccccc23)cc1S(=O)(=O)N1CCOCC1,inactive: -9.08%,–
CC(C)(C)C1CCC2(CC1)C(Nc1cccc(C(F)(F)F)c1)=NC(=S)N2CC#N (configuration not stated),inactive: -13.6%,–
NCCOc1ccccc1-c1ccccc1,–,"inconclusive: 39.8 µM [inhibitor, partial curve, poor fit]"
C#CCNC(=O)c1cc(-c2ccc(Cl)cc2Cl)c2cccn2n1,–,"inconclusive: 35.5 µM [inhibitor, partial curve, poor fit]"
c1ccc(COc2cccc(CN3CCc4ccccc4C3)c2)cc1,–,"inconclusive: 3.98 µM [inhibitor, full curve, poor fit]"

# Of the compounds above, 3 have fluorine:
Compound,"activity change, negative = inhibition",Potency
CC(NS(=O)(=O)Cc1ccc(F)cc1)c1cccs1 (configuration not stated),inactive: -4.96%,–
Cc1nc(CN2C[C@H](C(=O)N3CCN(c4ccccn4)CC3)C[C@@H]2c2ccc(F)cc2)cs1,–,"inconclusive: 17.8 µM [inhibitor, full curve]"
CC(C)(C)C1CCC2(CC1)C(Nc1cccc(C(F)(F)F)c1)=NC(=S)N2CC#N (configuration not stated),inactive: -13.6%,–

# (listing goes on)

Compound,"activity change, negative = inhibition",Potency
COc1cc(/C=C(/C#N)C(=O)c2ccccc2)cc(Br)c1O,–,"inconclusive: 8.91 µM [inhibitor, full curve, poor fit]"
COc1cc(/C=C2/C(=N)N3C(=NC2=O)SN=C3S(C)(=O)=O)ccc1OC(=O)c1ccco1,–,"inconclusive: 39.8 µM [inhibitor, partial curve]"
O=C1NCc2ccccc2CC12CCCCN2Cc1ccnc2ccccc12 (configuration not stated),–,"inconclusive: 31.6 µM [inhibitor, full curve]"
CC1CN(c2nnc(-c3ccccc3)c3ccccc23)CC(C)O1 (configuration not stated),inactive: 4.14%,–
O=C1NC(=S)NC(=O)C1Nc1ccc(Cl)cc1,–,"inconclusive: 44.7 µM [inhibitor, partial curve]"
COc1cc(C(=O)NC[C@@H]2CC[C@H]3C[C@@H]2C3(C)C)nc2ccccc12,inactive: 38.2% [at 176 µM],–
CCN(CC)S(=O)(=O)c1ccc(C(=O)N(c2ccccc2)c2nc(C)cs2)cc1,–,"inconclusive: 35.5 µM [inhibitor, partial curve, poor fit]"
CSCCC(NC(=O)c1cc(C)oc1C)C(=O)O (configuration not stated),–,"inconclusive: 3.98 µM [inhibitor, full curve, poor fit]"
CC(C)CC1C(=O)N(Cc2cn(CC3CCCCC3)nn2)CCS(=O)(=O)N1Cc1ccc(-c2ccc(Cl)c(Cl)c2)cc1 (configuration not stated),inactive: -5.74%,–
Cc1oc2c(c1C(=O)N1CCCC1)CN(Cc1cccc(F)c1)CC2,–,"inconclusive: 20 µM [inhibitor, full curve]"
COc1ccc(COc2cc(-c3cccc(OC)c3)nc3ccc(NC(=O)c4ccc(OC)cc4)cc23)cc1,–,"inconclusive: 4.47 µM [inhibitor, full curve, poor fit]"
C#CCNC(=O)CC[C@@H]1CNC(=O)[C@@H]2C[C@H](NC(=O)c3ccco3)CN12,–,"inconclusive: 39.8 µM [inhibitor, full curve, poor fit]"
CC1Cc2ccccc2N1C(=O)CCS(=O)(=O)c1cccs1 (configuration not stated),inactive: -19.9%,–
Cc1ccc(C(=O)Nc2ccc(S(=O)(=O)N3CCOCC3)cc2)cc1Br,–,"inconclusive: 0.794 µM [inhibitor, full curve, poor fit]"
CC1CC(C)CN(CCOCCSc2ccc(Cl)cc2)C1 (configuration not stated),–,"inconclusive: 2.82 µM [inhibitor, full curve, poor fit]"
COc1ccc(Cl)cc1NS(=O)(=O)c1cc(-c2cc(C(F)(F)F)on2)ccc1OC,–,"inconclusive: 35.5 µM [inhibitor, partial curve, poor fit]"
CN(C)CCOc1ccc(C(C)(C)c2ccccc2)cc1,–,"inconclusive: 0.447 µM [inhibitor, full curve, poor fit]"
O=C(Cn1nnc(-c2ccc(F)cc2)n1)Nc1cccc(S(=O)(=O)N2CCCC2)c1,–,"inconclusive: 39.8 µM [inhibitor, partial curve]"
Cc1ccccc1C(=O)OC1CCCN(C)C1 (configuration not stated),–,"inconclusive: 3.16 µM [inhibitor, full curve, poor fit]"
O=C(NCc1ccc(F)cc1)C1CCc2nnc(-c3ccc(Cl)cc3Cl)n21 (configuration not stated),inactive: -2.37% [at 6.33 µM],–
C/C(CCC(C)C)=N\NC(=S)Nc1cc(S(=O)(=O)N2CCOCC2)ccc1N1CCOCC1,–,"inconclusive: 15.8 µM [inhibitor, partial curve, poor fit]"
